This assay has as its system P388 leukemia ip, CD2F1 mice, survival T/C. The experiment in a line: NCI In Vivo Anticancer Drug Screen. Data for tumor model P388 Leukemia (intraperitoneal) in CD2F1 (CDF1) mice. Particulars: T/C endpoint: median survival time, higher T/C = longer survival.
[1] abbreviates: dose: 200.0 mg/kg/injection, schedule: Q01DX005 (ip), vehicle: Klucel (hydroxypropylcellulose) (HPC).
[2] abbreviates: dose: 240.0 mg/kg/injection, schedule: Q01DX005 (ip), vehicle: Klucel (hydroxypropylcellulose) (HPC).
The mark [3] stands for this setting: dose: 240.0 mg/kg/injection, schedule: Q01DX005 (ip), vehicle: saline with Tween-80.
Setting [4] is: dose: 100.0 mg/kg/injection, schedule: Q01DX009 (ip), vehicle: saline.

The list is a part of this screen's results and no random one: it is rich in T/C values a quarter to a half above the control, in often repeated tests (any T/C) and in doses without a T/C. Other doses and runs of a compound stand elsewhere. T/C: endpoint of the treated group in % of that of the vehicle group. Some doses have a count of surviving animals in place of a T/C: the source files T/C as zero there, which appears to mark a toxic dose or a test without result, not a measured value. Some doses without a T/C left all or most animals alive at the check, yet need not have been tolerated: the source hardly ever lists a survival T/C far under the control, and the zero likely stands for such cases as well. Counts of survivors are from the toxicity check (mostly the fifth day) where no day follows; animals may have died later. Schedule codes are those of the source, read here as Q, the interval in days (D) or hours (H), X, the number of doses. For survival time, this PubChem deposit counts one and a half times the control or more as active, and values a quarter to a half above the control carry no call in these data; other NCI protocols may use other cut-offs.

Turning to `CC1(C)CC(=O)C=C(Nc2ccc(O)cc2)C1`, the survivor count is reported as 6 of 6 (dose: 50.0 mg/kg/injection, schedule: Q01DX005 (ip), vehicle: saline with Tween-80) and 6 of 6 (dose: 200.0 mg/kg/injection, schedule: Q01DX005 (ip), vehicle: saline with Tween-80).

As to `Cc1cc2c(cc1C)C(=O)c1c(O)c3c(c(O)c1C2=O)C[C@@](O)(C(=O)CO)C[C@@H]3OC1CC(N)C(O)C(C)O1` (stereo not given in full), the T/C runs as follows: (dose: 1.56 mg/kg/injection, schedule: Q04DX003 (ip), vehicle: water) 136 % of control; (dose: 12.5 mg/kg/injection, schedule: Q04DX003 (ip), vehicle: water) 130 % of control.

For the compound `Cc1cccc(-n2c(C)nc3[nH]cc(C)c3c2=N)c1`, under setting [1], the survivor count was 0 of 6.

On to `COc1ccc(CSC(=S)Nc2cccc(C(F)(F)F)c2)cc1`, for which the survivor count (dose: 100.0 mg/kg/injection, schedule: Q01DX009 (ip), vehicle: suspension in saline) is 2 of 6.

In the case of `CCCN(C)CC(=O)NC(Cc1ccccc1)c1ccccc1` (stereo not given), the survivor count under setting [2] was 1 of 6.

In the case of `COC(=O)C1C2CC3c4[nH]c5cc(OC)ccc5c4CCN3CC2CC(O)C1OC` (stereo not given), the survivor count under setting [1] is on record as 0 of 6.

In the case of `Oc1ccc(O)c(Cl)c1Cl`, where the note is “dose: 200.0 mg/kg/injection, schedule: Q04DX003 (ip), vehicle: saline”, the survivor count is on record as 3 of 6.

`c1ccc(N2CCN(C(c3cccs3)N3CCN(c4ccccc4)CC3)CC2)cc1`: the survivor count under setting [3] is given as 0 of 6.

Turning to `CCCCCC[N+]1([O-])CC[N+]([O-])(CCCCCC)CC1` (stereo not given), the survivor count reads like this: (dose: 120.0 mg/kg/injection, schedule: Q01DX005 (ip), vehicle: saline) 0 of 6; (dose: 240.0 mg/kg/injection, schedule: Q01DX005 (ip), vehicle: saline) 0 of 6.

`Cc1cc(Cl)ccc1NC(=O)NC(C)(C)COC(=O)Nc1cccc(Cl)c1`: the survivor count runs as follows: (dose: 60.0 mg/kg/injection, schedule: Q01DX005 (ip), vehicle: saline with Tween-80) 6 of 6; under setting [3], 6 of 6.

As for `OC1(O)CCC1(O)OCCBr` (stereo not given), the survivor count under setting [3] was 2 of 6.

Consider `CN(C)c1cnc(N)nc1N`, for which the survivor count (dose: 50.0 mg/kg/injection, schedule: Q01DX005 (ip), vehicle: saline) was 4 of 6 and the survivor count (dose: 200.0 mg/kg/injection, schedule: Q01DX005 (ip), vehicle: saline) was 0 of 6.

As for `COc1ccc(C(c2cc3c(cc2O)OCO3)N2CCCC2)cc1` (stereo not given), the survivor count under setting [2] is on record as 4 of 6.

On to `NC1CC1N` (stereo not given), for which the survivor count is, setting by setting: (dose: 50.0 mg/kg/injection, schedule: Q01DX009 (ip), vehicle: saline) 6 of 6; under setting [4], 0 of 6; (dose: 200.0 mg/kg/injection, schedule: Q01DX009 (ip), vehicle: saline) 0 of 6.

For `C/C=C(\C(=O)O)S(=O)(=O)O.[Pb]`, the survivor count (dose: 100.0 mg/kg/injection, schedule: Q01DX009 (ip), vehicle: saline with Tween-80) was 2 of 6.

In the case of `CCCCCCCCCCCCCCCCS(=O)(=O)N/N=c1\cc(-c2ccccc2Cl)c2ccccc2n1C`, under setting [4], the survivor count is 5 of 6.

On to `COc1cccc2c1C(=O)c1c(O)c3c(c(O)c1C2=O)CC(O)(/C=N/NS(=O)(=O)c1ccc(C)cc1)CC3OC1CC(N)C(O)C(C)O1` (stereo not given), for which the T/C is 131 % of control (dose: 1.56 mg/kg/injection, schedule: Q01DX009 (ip), vehicle: other) and 146 % of control (dose: 3.13 mg/kg/injection, schedule: Q01DX009 (ip), vehicle: other).

Values taken from PubChem BioAssay AID330 (DTP/NCI, 2004).
